The source of these data is patent publication EP0926242A1, “GLIOTOXIN DERIVATIVES AND ANTICANCER AGENT COMPRISING THE SAME” (priority 1996, dated 1998).

The test system of the series is mouse carcinoma of the colon cells colon 26. Briefly: Anticancer effect in vivo against colon 26 (Example 9 A). The note with it: CDFI mice. The procedure: • (A) Evaluationin vivo using mouse carcinoma of the colon cells colon 26 CDFI mice (female : 4 weks age) were bought, and colon 26 subcultured in the subcutaneous tissue of the mouse was taken out, and cut into small pieces by a scissors. The cancer cells were transplanted into subcutaneous tisue of CDFI mice by a trucker. The day was assigned 0 day, and the tumor was measured by a slide caliper after 7 days. The volume of the tumor was calculated, and divided into groups (each group : n = 4). The text compound was dissolved in dimethylsulfoxide, and diluted with 5 % Tween 80- saline aqueous solution. […] The administration was carried out after 7 days, after 11 days and after 15 days or after 7 days and after 8 days from the transplantation at a rate of once per one day. 21st day from the transplantation, the volume of tumor was measured and the volume of tumor and the inhibition against tumor multiplication rate (I.R.) were calculated. The volume of tumor was calculated by the following formula. (Tumore Volume [mm)^3 (]= Minor Axis [mm])^2 × Major Axis [mm] × (1/2) [formula] • The inhibition against tumor multiplication rate (I.R.) was calculated by the following formula. I.R. [%] = {1- (Average Tumor Volume of Administration Group / Average Tumor Volume of Control Group)) × 100 [formula] • (B) Evaluation in vivo using human carcinoma of the colon cells HCT-116 Balb/c nu/nu mice (female : 5 weks age) were bought, and HCT-116 (Dainippon Seiyaku) subcultured in the subcutaneous tissue of the mouse was taken out, and cut into small pieces by a scissors. The cancer cells were transplanted into subcutaneous tissue of […] mice by a trucker. The day was assigned 0 day, and the tumor was measured by a slide caliper after 7 days. The volume of the tumor was calculated, and divided into groups (each group : n = 2). […] 21st day from the transplantation, the volume of tumor was measured and the volume of tumor and the inhibition against tumor multiplication rate (I.R.) were calculated by the above formulas.

For `CN1C(=O)[C@]23Cc4cccc(O)c4N2C(=O)[C@]1(CO)SS3` [Compound of Example 4, (3S, 10aR)―2,3―dihydro―6―hydroxy―3―(hydroxymethyl)― 2―methyl―10H―3,10a―epidithiopyrazino[1,2―a]indole― 1,4―dione], the “day of I.R.Max” value was found to be 11 days (2.5[mg/kg]×3 (i.p.), 7,11,15th days); 10 days (5 [mg/kg]×3 (i.p.), 7,11,15th days); 10 days (10 [mg/kg]×2 (i.p.), 7,8th days).
